According to US4760148A, “5-aralkyl substituted 2H-benzotriazoles and stabilized compositions” (Ciba-Geigy Corporation, priority 1985, dated 1988):

Test: Retention of gloss after outdoor exposure in Florida
Conditions: outdoors in Florida, 12 months; two parts by weight additive; without stabilizer 30
For CC(C)(C)CC(C)(C)c1cc(-n2nc3ccc(C(C)(C)c4ccccc4)cc3n2)c(O)c(C(C)(C)c2ccccc2)c1 [Example 22, 5-alpha,alpha-Dimethylbenzyl-2-(2-hydroxy-3-alpha,alpha-dimethylbenzyl-5-tert-octylphenyl)-2H-benzotriazole], the “% Retention of Original Gloss” value was 73%. In the case of CC(C)(C)CC(C)(C)c1cc(-n2nc3ccc(C(C)(C)c4ccccc4)cc3n2)c(O)c(C(C)(C)CC(C)(C)C)c1 [Example 24, 5-alpha,alpha-Dimethylbenzyl-2-(2-hydroxy-3,5-di-tert-octylphenyl)-2H-benzotriazole], the “% Retention of Original Gloss” value is reported as 82%. In the case of CCC(C)(C)c1cc(-n2nc3ccc(C(C)(C)c4ccccc4)cc3n2)c(O)c(C(C)(C)CC)c1 [Example 23], the “% Retention of Original Gloss” value is reported as 76%. With CC(C)(c1ccccc1)c1cc(-n2nc3ccccc3n2)c(O)c(C(C)(C)c2ccccc2)c1 [Compound F, 2-[2-hydroxy-3,5-di-(alpha,alpha-dimethylbenzyl)phenyl]-2 H-benzotriazole, reference compound] the “% Retention of Original Gloss” value was 79%.

Test: Retention of original gloss after exposure in the QUV apparatus
Conditions: ultraviolet light and humidity, 876 hours
In the case of CC(c1ccccc1)c1ccc2nn(-c3cc(C(C)(C)c4ccccc4)cc(C(C)(C)c4ccccc4)c3O)nc2c1 (stereo not drawn) [Example 25, 5-alpha-Methylbenzyl-2-[2-hydroxy-3,5-di-(alpha,alpha-dimethylbenzyl)phenyl]-2H-benzotriazole], the “% Retention of Original Gloss” value is reported as 46%. For CC(C)(c1ccccc1)c1cc(-n2nc3ccc(Cc4ccccc4)cc3n2)c(O)c(C(C)(C)c2ccccc2)c1 [Example 26, 5-Benzyl-2-[2-hydroxy-3,5-di-(alpha,alpha-dimethylbenzyl)phenyl]-2H-benzotriazole], the “% Retention of Original Gloss” value was 77%. For CCC(C)(C)c1cc(-n2nc3ccccc3n2)c(O)c(C(C)(C)CC)c1 [Compound B, 2(2-hydroxy-3,5-di-tert-amylphenyl)-2H--benzotriazole, reference compound], the “% Retention of Original Gloss” value was 73%. In the case of CC(C)(C)c1cc(-n2nc3ccc(C(C)(C)c4ccccc4)cc3n2)c(O)c(C(C)(C)C)c1 [Example 7, 5-alpha,alpha-Dimethylbenzyl-2-(2-hydroxy-3,5-di-tert-butylphenyl)-2H-benzotriazole], the “% Retention of Original Gloss” value is reported as 71%. For CC(C)(c1ccccc1)c1cc(-n2nc3ccccc3n2)c(O)c(C(C)(C)c2ccccc2)c1 [Compound F, 2-[2-hydroxy-3,5-di-(alpha,alpha-dimethylbenzyl)phenyl]-2 H-benzotriazole, reference compound], the “% Retention of Original Gloss” value was 60%. With CC(C)(C)CC(C)(C)c1cc(-n2nc3ccccc3n2)c(O)c(C(C)(C)c2ccccc2)c1 [Compound G, 2-[2-hydroxy-3-(alpha,alpha-dimethylbenzyl)-5-tert-octylphenyl]-2H-benzotriazole, reference compound] the “% Retention of Original Gloss” value was 67%.
